Experimental data from article doi:10.1101/424556.
No constants are given. Whether binding was seen depends on the method and setting. Binding seen in cells or lysates may run through a third protein. Some entries that bind do so weakly or less than the wild type.

Sequences of proteins named here, by UniProt entry; tags and fusion partners are left off. A change or cut given only in a name is not applied to a line headed by its entry.
UniProt O15516: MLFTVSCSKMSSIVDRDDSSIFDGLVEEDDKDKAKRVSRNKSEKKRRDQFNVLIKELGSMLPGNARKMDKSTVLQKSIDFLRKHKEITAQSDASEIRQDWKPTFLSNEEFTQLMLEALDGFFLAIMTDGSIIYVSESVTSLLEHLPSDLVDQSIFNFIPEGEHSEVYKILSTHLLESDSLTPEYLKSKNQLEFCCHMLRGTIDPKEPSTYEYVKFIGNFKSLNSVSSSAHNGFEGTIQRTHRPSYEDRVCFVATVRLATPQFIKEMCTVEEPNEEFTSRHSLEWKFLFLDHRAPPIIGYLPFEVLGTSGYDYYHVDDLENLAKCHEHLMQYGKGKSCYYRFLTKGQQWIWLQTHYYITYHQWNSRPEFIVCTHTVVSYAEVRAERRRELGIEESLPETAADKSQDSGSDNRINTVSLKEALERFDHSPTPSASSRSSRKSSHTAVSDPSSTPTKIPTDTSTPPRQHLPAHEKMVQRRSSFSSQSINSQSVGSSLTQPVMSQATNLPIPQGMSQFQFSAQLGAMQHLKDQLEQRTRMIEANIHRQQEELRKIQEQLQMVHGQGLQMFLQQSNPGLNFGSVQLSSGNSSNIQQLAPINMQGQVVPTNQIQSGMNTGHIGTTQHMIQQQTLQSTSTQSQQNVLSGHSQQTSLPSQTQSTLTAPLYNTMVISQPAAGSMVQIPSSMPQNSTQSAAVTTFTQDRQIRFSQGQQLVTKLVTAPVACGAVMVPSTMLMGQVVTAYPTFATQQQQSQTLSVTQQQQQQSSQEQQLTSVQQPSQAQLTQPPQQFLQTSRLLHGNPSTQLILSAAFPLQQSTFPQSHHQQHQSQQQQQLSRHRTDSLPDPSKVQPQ
UniProt O00327: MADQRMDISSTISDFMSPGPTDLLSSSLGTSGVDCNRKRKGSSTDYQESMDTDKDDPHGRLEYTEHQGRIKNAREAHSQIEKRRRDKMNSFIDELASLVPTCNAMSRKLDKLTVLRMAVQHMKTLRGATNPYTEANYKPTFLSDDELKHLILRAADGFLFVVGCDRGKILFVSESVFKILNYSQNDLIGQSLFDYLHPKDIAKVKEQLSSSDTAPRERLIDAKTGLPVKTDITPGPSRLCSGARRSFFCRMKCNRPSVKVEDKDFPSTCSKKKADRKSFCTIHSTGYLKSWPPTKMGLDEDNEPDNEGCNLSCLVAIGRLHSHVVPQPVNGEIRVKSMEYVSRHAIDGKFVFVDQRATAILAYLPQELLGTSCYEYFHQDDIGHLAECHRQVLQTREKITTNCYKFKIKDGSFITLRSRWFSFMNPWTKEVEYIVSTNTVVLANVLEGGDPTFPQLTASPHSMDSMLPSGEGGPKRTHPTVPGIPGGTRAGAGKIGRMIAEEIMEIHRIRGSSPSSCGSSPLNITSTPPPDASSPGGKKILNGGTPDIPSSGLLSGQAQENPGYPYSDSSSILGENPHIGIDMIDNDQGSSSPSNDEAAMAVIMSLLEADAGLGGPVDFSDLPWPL

T1: CRY1, endogenous in HepG2 (human (endogenous in HepG2)) (UniProt Q16526)
T1 sequence: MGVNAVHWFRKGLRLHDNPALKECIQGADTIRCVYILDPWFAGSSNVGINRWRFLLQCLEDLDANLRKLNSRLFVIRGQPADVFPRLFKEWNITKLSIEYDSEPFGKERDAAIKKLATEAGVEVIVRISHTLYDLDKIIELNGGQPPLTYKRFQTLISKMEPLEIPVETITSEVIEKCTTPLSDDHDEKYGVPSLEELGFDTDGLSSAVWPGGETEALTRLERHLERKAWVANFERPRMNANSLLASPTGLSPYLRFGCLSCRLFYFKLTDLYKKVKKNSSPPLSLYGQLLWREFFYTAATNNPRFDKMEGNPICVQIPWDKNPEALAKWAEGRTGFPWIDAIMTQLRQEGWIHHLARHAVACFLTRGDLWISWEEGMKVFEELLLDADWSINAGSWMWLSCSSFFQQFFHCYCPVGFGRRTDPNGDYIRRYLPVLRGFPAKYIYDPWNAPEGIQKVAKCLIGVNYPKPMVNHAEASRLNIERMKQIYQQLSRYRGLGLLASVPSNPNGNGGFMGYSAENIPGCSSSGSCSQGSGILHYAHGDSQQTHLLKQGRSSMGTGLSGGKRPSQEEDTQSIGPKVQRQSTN

B1: HNF4A (hepatocyte nuclear factor 4A), transiently expressed (protein, UniProt P41235 1-474)
chain: MRLSKTLVDMDMADYSAALDPAYTTLEFENVQVLTMGNDTSPSEGTNLNAPNSLGVSALCAICGDRATGKHYGASSCDGCKGFFRRSVRKNHMYSCRFSRQCVVDKDKRNQCRYCRLKKCFRAGMKKEAVQNERDRISTRRSSYEDSSLPSINALLQAEVLSRQITSPVSGINGDIRAKKIASIADVCESMKEQLLVLVEWAKYIPAFCELPLDDQVALLRAHAGEHLLLGATKRSMVFKDVLLLGNDYIVPRHCPELAEMSRVSIRILDELVLPFQELQIDDNEYAYLKAIIFFDPDAKGLSDPGKIKRLRSQVQVSLEDYINDRQYDSRGRFGELLLLLPTLQSITWQMIEQIQFIKLFGMAKIDNLLQEMLLGGSPSDAPHAHHPLHPHLMQEHMGTNVIVANTMPTHLSNGQMCEWPRPRGQAATPETPQPSPPGGSGSEPYKLLPGAVATIVKPLSAIPQPTITKQEVI
B2: HNF4A, endogenous in HepG2 (protein, UniProt P41235 1-474)
chain: B1 chain

Experiments:
Assay in all cases: co-IP
CLOCK:BMAL1 heterodimer = CLOCK:BMAL1 heterodimer (UniProt O15516)
[1] = biological target: T1, CRY1, endogenous in HepG2 (human (endogenous in HepG2))
[2] = biological target: BMAL1, endogenous in HepG2 (human (endogenous in HepG2)) (UniProt O00327)

| Binder | binding (CLOCK:BMAL1 heterodimer) | binding [1] | binding [2] |
| --- | --- | --- | --- |
| B1 | binds | – | – |
| B2 | – | binds | binds |
